The target of the assay is T1, endogenous Rad21 of HeLaK cells (human (endogenous in HeLaK)) (UniProt O60216).
T1 sequence: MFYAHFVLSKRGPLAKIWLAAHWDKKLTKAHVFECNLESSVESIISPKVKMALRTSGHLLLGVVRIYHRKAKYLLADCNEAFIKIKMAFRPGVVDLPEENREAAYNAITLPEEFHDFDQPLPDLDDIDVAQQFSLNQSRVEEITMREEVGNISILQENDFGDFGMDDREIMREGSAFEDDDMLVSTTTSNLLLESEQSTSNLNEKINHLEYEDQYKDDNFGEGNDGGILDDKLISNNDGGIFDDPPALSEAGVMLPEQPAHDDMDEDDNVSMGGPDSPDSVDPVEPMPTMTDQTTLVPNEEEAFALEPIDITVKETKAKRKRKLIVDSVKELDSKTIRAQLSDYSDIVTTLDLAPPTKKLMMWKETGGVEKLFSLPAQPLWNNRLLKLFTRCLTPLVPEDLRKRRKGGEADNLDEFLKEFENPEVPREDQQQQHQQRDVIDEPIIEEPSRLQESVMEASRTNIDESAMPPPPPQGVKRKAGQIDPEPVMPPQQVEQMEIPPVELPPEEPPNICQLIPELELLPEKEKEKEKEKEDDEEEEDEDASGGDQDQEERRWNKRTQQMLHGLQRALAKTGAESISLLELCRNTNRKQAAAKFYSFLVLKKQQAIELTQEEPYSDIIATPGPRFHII
As to the kind of experiment: co-IP; Rad21-IP (guinea pig anti-Rad21 on protein A sepharose) from benzonase-treated chromatin of prometaphase HeLaK cells expressing Nek2aΔMR and Flag-tagged Pds5b-WT; washes with additional 250 mM NaCl; immunoblotting. In general terms: Immunoblotting shows a protein as a band on a membrane.

These are yes or no findings as the source states them, for the method shown. Binding seen in cells or lysates may run through a third protein. Some entries that bind do so weakly or less than the wild type. Where a sequence is shown, tags or fusion partners need not be part of it.

B1: endogenous Pds5b of HeLaK cells (protein, UniProt Q9NTI5 1-1447)
chain: MAHSKTRTNDGKITYPPGVKEISDKISKEEMVRRLKMVVKTFMDMDQDSEEEKELYLNLALHLASDFFLKHPDKDVRLLVACCLADIFRIYAPEAPYTSPDKLKDIFMFITRQLKGLEDTKSPQFNRYFYLLENIAWVKSYNICFELEDSNEIFTQLYRTLFSVINNGHNQKVHMHMVDLMSSIICEGDTVSQELLDTVLVNLVPAHKNLNKQAYDLAKALLKRTAQAIEPYITNFFNQVLMLGKTSISDLSEHVFDLILELYNIDSHLLLSVLPQLEFKLKSNDNEERLQVVKLLAKMFGAKDSELASQNKPLWQCYLGRFNDIHVPIRLECVKFASHCLMNHPDLAKDLTEYLKVRSHDPEEAIRHDVIVSIVTAAKKDILLVNDHLLNFVRERTLDKRWRVRKEAMMGLAQIYKKYALQSAAGKDAAKQIAWIKDKLLHIYYQNSIDDRLLVERIFAQYMVPHNLETTERMKCLYYLYATLDLNAVKALNEMWKCQNLLRHQVKDLLDLIKQPKTDASVKAIFSKVMVITRNLPDPGKAQDFMKKFTQVLEDDEKIRKQLEVLVSPTCSCKQAEGCVREITKKLGNPKQPTNPFLEMIKFLLERIAPVHIDTESISALIKQVNKSIDGTADDEDEGVPTDQAIRAGLELLKVLSFTHPISFHSAETFESLLACLKMDDEKVAEAALQIFKNTGSKIEEDFPHIRSALLPVLHHKSKKGPPRQAKYAIHCIHAIFSSKETQFAQIFEPLHKSLDPSNLEHLITPLVTIGHIALLAPDQFAAPLKSLVATFIVKDLLMNDRLPGKKTTKLWVPDEEVSPETMVKIQAIKMMVRWLLGMKNNHSKSGTSTLRLLTTILHSDGDLTEQGKISKPDMSRLRLAAGSAIVKLAQEPCYHEIITLEQYQLCALAINDECYQVRQVFAQKLHKGLSRLRLPLEYMAICALCAKDPVKERRAHARQCLVKNINVRREYLKQHAAVSEKLLSLLPEYVVPYTIHLLAHDPDYVKVQDIEQLKDVKECLWFVLEILMAKNENNSHAFIRKMVENIKQTKDAQGPDDAKMNEKLYTVCDVAMNIIMSKSTTYSLESPKDPVLPARFFTQPDKNFSNTKNYLPPEMKSFFTPGKPKTTNVLGAVNKPLSSAGKQSQTKSSRMETVSNASSSSNPSSPGRIKGRLDSSEMDHSENEDYTMSSPLPGKKSDKRDDSDLVRSELEKPRGRKKTPVTEQEEKLGMDDLTKLVQEQKPKGSQRSRKRGHTASESDEQQWPEEKRLKEDILENEDEQNSPPKKGKRGRPPKPLGGGTPKEEPTMKTSKKGSKKKSGPPAPEEEEEEERQSGNTEQKSKSKQHRVSRRAQQRAESPESSAIESTQSTPQKGRGRPSKTPSPSQPKKNVRVGRSKQAATKENDSSEEVDVFQGSSPVDDIPQEETEEEEVSTVNVRRRSAKRERR
B1: the binding result was “binds”.

B2: Flag-tagged Pds5b-WT expressed in HeLaK cells (protein, UniProt Q9NTI5 1-1447)
chain: B1 chain
Regarding B2, the binding result is “binds”.
